Not every detail of the peptide structures is certain; ends, links or a residue may be inferred.
Tested on: growth hormone secretion
Assay: inhibition of pentobarbital-stimulated growth hormone release in rats
Assay type: in vivo, rat
Conditions: serum GH 20 minutes after dosing
Procedure: D-Val^1 -somatostatin also was tested for its activity with respect to the release of growth hormone. The procedure which was employed is carried out using normal male SpragueDawley rats weighing 100-120 grams (Laboratory Supply Company, Indianapolis, Indiana). The test is a modification of the method of P. Brazeau, W. Vale, and R. Guilleman, Endocrinology, 94 184 (1974). In this assay, five groups of eight rats each were employed. Sodium pentobarbital was administered intraperitoneally to all of the rats to stimulate growth hormone secretion. One group served as the control and received only saline. Two of the groups received somatostatin, one at 2 μg./rat, subcutaneously, and the other at 50 μg./rat, subcutaneously. The other two groups received D-Val^1 -somatostatin, one at 2 μg./rat, subcutaneously, and the other at 50 μg./rat, subcutaneously. The serum concentration of growth hormone was measured 20 minutes after simultaneous administration of sodium pentobarbital and test compound. The degree of inhibition of serum growth hormone concentration then was determined with respect to the control group, and the relative activities of D-Val^1 -somatostatin and somatostatin itself were compared.

C[C@H](N)C(=O)NCC(=O)N[C@H]1CSSC[C@@H](C(=O)O)NC(=O)[C@H](CO)NC(=O)[C@H]([C@@H](C)O)NC(=O)[C@H](Cc2ccccc2)NC(=O)[C@H]([C@@H](C)O)NC(=O)[C@H](CCCCN)NC(=O)[C@H](Cc2c[nH]c3ccccc23)NC(=O)[C@H](Cc2ccccc2)NC(=O)[C@H](Cc2ccccc2)NC(=O)[C@H](CC(N)=O)NC(=O)[C@H](CCCCN)NC1=O [somatostatin, Somatostatin]
inhibition of the increase in growth hormone secretion over control (2 μg./rat subcutaneously): 44% | inhibition of the increase in growth hormone secretion over control (50 μg./rat subcutaneously): 79%
